The other results are listed elsewhere or left out. The main result of the screen is listed elsewhere. These columns were measured beside it and carry no call. Compounds called inactive in the main read-out are mostly missing here. Words in brackets tell the shape of the fitted curve; partial curves, single points and poor fits give uncertain potencies.
Experiment: qHTS Assay for Lipid Storage Modulators in Drosophila S3 Cells;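 for cell number change: cells counted by Cell Tracker Red CMTPX staining in the red channel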
Details: BODIPY lipid droplet fluorescence, 18-24 h; for cell number change: measured here: cell count max response, cells fed with added oleic acid
In short: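 Laser-scanning cytometry quantifies lipid droplet accumulation (500–530 nm total intensity; droplet/cell object ratio) in oleic acid-fed (400 uM added) Drosophila S3 cells treated with a concentration series. 20 uM Triacsin C defined 100% inhibition.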

[1] = measured here: cell number channel AC50, cells fed with added oleic acid
[2] = measured here: lipid fluorescence (Fed channel) AC50, cells fed with added oleic acid

Structure (SMILES)	cell number change	AC50 [1]	AC50 [2]
O=C(O)CCc1nn2c3ccccc3n(Cc3ccccc3F)c2nc1=O	-22.1%	0.00517 µM [falling, full curve, poor fit]	0.116 µM [falling, full curve]
O=C(N/N=C/c1ccc2c(c1)OCO2)c1cccnc1	1.26%	–	–
CC1Cc2ccccc2N1C(=S)Nc1cccc(S(=O)(=O)N(C)C)c1 (stereo not drawn)	66.4%	0.259 µM [rising, full curve]	29.1 µM [rising, partial curve]
CC(NS(=O)(=O)c1ccccc1Cl)C1CC2CCC1C2 (stereo not drawn)	-3.97%	–	–
Cc1ccsc1C1C(C#N)=C(N)OC2=C1C(=O)CC(C)(C)C2 (stereo not drawn)	14.8%	–	–
NS(=O)(=O)c1ccc(NC(=O)NC2CCCCC2)cc1	-32%	0.651 µM [falling, full curve, poor fit]	–
COc1ccc2nc(NC(=O)CN(c3ccc(C)cc3)S(=O)(=O)c3c(C)nn(C)c3C)sc2c1	3.89%	–	–
COc1cccc(-c2csc(N3CCN(CC(=O)NNC(=O)c4ccc(Br)cc4)CC3)n2)c1	41.6%	–	29.1 µM [rising, single point]
CC(C)(CN1CCCCC1)NS(=O)(=O)c1ccc(Cl)cc1	-37.7%	23.1 µM [falling, single point]	5.8 µM [falling, full curve]
CO/N=C(\c1ccccc1)c1cccnc1	7.42%	–	29.1 µM [rising, single point]
O=C(Nc1cc2c(cc1C(=O)O)OCCCO2)c1ccc(F)cc1F	-28.9%	–	–
CCOC(=O)c1ccc(NC(=O)C2CCCN(S(=O)(=O)c3ccc(F)cc3)C2)cc1 (stereo not drawn)	88.3%	2.06 µM [rising, partial curve, poor fit]	2.91 µM [rising, partial curve, poor fit]
c1ccc(-c2nnc(-c3ccncc3)nc2-c2ccccc2)cc1	–	1.84 µM [falling, partial curve]	1.84 µM [falling, partial curve]
Cn1c(SCC(=O)Nc2cccc(F)c2)nc2c(c1=O)SCC2	-5.1%	–	16.4 µM [rising, single point]
CC(C)c1ccc(S(=O)(=O)N2CCN(C(=O)n3ccnc3)CC2)cc1	-6.49%	–	0.82 µM [falling, full curve, poor fit]
Cc1c(C(=O)N(C)CCc2cnn(C)c2)oc2c(F)cccc12	-35.4%	0.13 µM [falling, full curve]	–
CN1CCN(c2ccc(NC(=O)c3cc(S(N)(=O)=O)ccc3N3CCOCC3)cc2)CC1	-14.5%	–	6.51 µM [rising, single point]
COc1ccc(S(=O)(=O)N2CCCC2CNC(=O)C(=O)NCc2ccccc2)cc1 (stereo not drawn)	72.2%	16.4 µM [rising, partial curve]	2.06 µM [rising, partial curve]
Cc1ccc(OCCC(=O)OCC(=O)Nc2c(C)nn(-c3ccccc3)c2C)cc1	–	–	6.51 µM [falling, single point]
O=C(COC(=O)c1ccc2ccccc2c1O)NCC(F)(F)F	-13.5%	–	0.0206 µM [falling, partial curve, poor fit]

Structure (SMILES)	cell number change	AC50 [1]	AC50 [2]
CCn1c(SCC(=O)N2CCCCC2C)nnc1-c1ccco1 (stereo not drawn)	-13.2%	–	35.5 µM [falling, single point]
CC(C)CN(C(=O)COC(=O)c1cnc(Cl)c(Cl)c1)c1c(N)n(Cc2ccccc2)c(=O)[nH]c1=O	8.33%	0.291 µM [falling, full curve, poor fit]	6.51 µM [falling, partial curve, poor fit]
O=C(c1ccc(CSc2nc3ccncc3[nH]2)cc1)N1CCCCCC1	-11.6%	–	0.651 µM [falling, full curve, poor fit]
O=C(CC1C(=O)CCCC1=O)c1ccccc1	41.8%	–	–
COCCOC(=O)c1c(C)oc2ccc(OCC=C(C)C)cc12	3.6%	–	–
COc1ccccc1N1CCN(C(=O)c2cccc(Oc3ccccc3)c2)CC1	30.5%	29.1 µM [rising, single point]	29.1 µM [rising, single point]
CCC1(c2ccccc2)NC(=O)N(CC(=O)Nc2cc(Cl)ccc2N2CCN(C)CC2)C1=O (stereo not drawn)	13.5%	0.116 µM [falling, full curve, poor fit]	23.1 µM [rising, single point]
Cc1ccc(NC(=O)C(=O)N2CCCC2)cc1Cl	–	–	29.1 µM [rising, single point]
CCOCCn1c(N2CCN(c3ccc(OC)cc3)CC2)nc2c1c(=O)n(C)c(=O)n2C	-7.91%	0.092 µM [rising, full curve, poor fit]	–
O=C(CN1CCOCC1)Nc1nc(-c2ccc3c(c2)CCN3S(=O)(=O)c2ccccc2)cs1	-35.4%	7.31 µM [falling, partial curve]	–
S=C(Nc1cc(Cl)cc(Cl)c1)N1CCN(c2ccccn2)CC1	15.3%	–	23.1 µM [rising, partial curve]
CNC(=O)Nc1ccc2nc(C)oc2c1	-5.42%	–	–
Oc1ccc(-c2csc(Nc3ccccn3)n2)c(O)c1	-58.8%	13 µM [falling, partial curve]	–
Cc1csc(=O)n1CCC(=O)OCC(=O)c1c(N)n(CC(C)C)c(=O)n(C)c1=O	–	2.06 µM [rising, partial curve, poor fit]	–
COc1ccccc1NC(=O)CSc1nc(SC)ns1	20.8%	–	0.259 µM [rising, partial curve]
OCCc1c[nH]c2cc(F)ccc12	34.3%	–	0.651 µM [rising, partial curve]
CCN(CC)C(=O)Cn1nnc(-c2ccc(C)o2)n1	0.068%	–	1.03 µM [falling, full curve, poor fit]
Cc1nn(C(C)C(=O)NC2CC2)c(=O)c2nn(-c3ccccc3)c(C)c12 (stereo not drawn)	–	–	29.1 µM [rising, single point]
O=C(Nc1cccc(F)c1)C1CC(=O)N(c2ccc(Cl)cc2)C1 (stereo not drawn)	–	–	3.26 µM [falling, full curve]

Some of the entries so far, as a markdown table.

| Structure (SMILES) | cell number change | AC50 [1] | AC50 [2] |
| --- | --- | --- | --- |
| O=C(CC1C(=O)CCCC1=O)c1ccccc1 | 41.8% | – | – |
| COc1ccccc1NC(=O)CSc1nc(SC)ns1 | 20.8% | – | 0.259 µM [rising, partial curve] |
